Assay results from PubChem BioAssay AID196 (DTP/NCI, 2004).
The list is a part of this screen's results and no random one: it is rich in T/C values a quarter to a half above the control, in often repeated tests (any T/C) and in doses without a T/C. Other doses and runs of a compound stand elsewhere. T/C is the treated group as % of the vehicle group. Some doses have a count of surviving animals in place of a T/C: the source files T/C as zero there, which appears to mark a toxic dose or a test without result, not a measured value. Some survivor counts are full or nearly so, which does not show that the dose was tolerated: the source hardly ever lists a survival T/C far under the control, and the zero likely stands for such cases as well. Survivors were counted at the toxicity check, usually on the fifth day, unless a day is given; later deaths do not show. Schedule codes are those of the source, read here as Q, the interval in days (D) or hours (H), X, the number of doses. Some entries hold several experiments; their values stand side by side, smallest first. Some structures stand for samples that the source files as different forms (salt, stereo form or complex); doses refer to the form tested. Where survival is the endpoint, the PubChem record calls one and a half times the control and up active, and a quarter to a half above the control has no call in these data; cut-offs in other NCI protocols can differ. Marks such as (2×) give the number of equal values in this list. Some T/C values carry the count of animals alive at the toxicity check (mostly the fifth day); where none is given, no animal had died by that day.

Tested on: BDF1 mice, intracerebral B16 melanoma, median survival T/C
Assay: NCI In Vivo Anticancer Drug Screen. Data for tumor model B16 Melanoma (intracerebral) in B6D2F1 (BDF1) mice
Conditions: T/C endpoint: median survival time, higher T/C = longer survival
Experimental: The antitumor activity of compounds was measured in mice bearing transplantable tumors. Survival or tumor size were measured and the results are expressed as the measurement made in the treated group (T) divided by the measurement made in the vehicle treated control group (C). The tumor model used in this assay is B16 Melanoma (intracerebral) in B6D2F1 (BDF1) mice

[1] = dose: 4.0 mg/kg/injection, schedule: Q01DX009 (ip), vehicle: saline
[2] = dose: 8.0 mg/kg/injection, schedule: Q01DX009 (ip), vehicle: saline
[3] = dose: 90.0 mg/kg/injection, schedule: Q01DX001 (ip), vehicle: Klucel (hydroxypropylcellulose) (HPC)

CN(C)N=Nc1ccc(Cl)c2ncccc12
survivor count (dose: 25.0 mg/kg/injection, schedule: Q01DX009 (ip), vehicle: other): 10 of 10

CC[C@H]1CN2CCc3cc(OC)c(OC)cc3[C@@H]2C[C@@H]1C[C@H]1NCCc2cc(OC)c(OC)cc21
survivor count (dose: 16.0 mg/kg/injection, schedule: Q01DX005 (ip), vehicle: Klucel (hydroxypropylcellulose) (HPC)): 2 of 10 and 10 of 10

Cc1ncc(CO)c(C)c1O
survivor count (dose: 512.0 mg/kg/injection, schedule: Q01DX005 (ip), vehicle: Klucel (hydroxypropylcellulose) (HPC)): 0 of 10 | survivor count (dose: 1024.0 mg/kg/injection, schedule: Q01DX005 (ip), vehicle: Klucel (hydroxypropylcellulose) (HPC)): 0 of 10

COc1ccc2c(c1)CCC(c1ccccc1)=C2c1ccc(OCCN2CCCC2)cc1
survivor count (dose: 12.0 mg/kg/injection, schedule: Q01DX005 (ip), vehicle: Klucel (hydroxypropylcellulose) (HPC)): 10 of 10 | survivor count (dose: 96.0 mg/kg/injection, schedule: Q01DX005 (ip), vehicle: Klucel (hydroxypropylcellulose) (HPC)): 10 of 10

CN(Cc1cnc2nc(N)nc(N)c2n1)c1ccc(C(=O)N[C@@H](CCC(=O)O)C(=O)O)cc1
survivor count (dose: 3.0 mg/kg/injection, schedule: Q01DX009 (ip), vehicle: saline): 10 of 10 | survivor count (dose: 6.0 mg/kg/injection, schedule: Q01DX009 (ip), vehicle: saline): 10 of 10

CN=NNc1nc[nH]c1C(N)=O
survivor count (dose: 256.0 mg/kg/injection, schedule: Q01DX005 (ip), vehicle: saline): 10 of 10

O=C1c2c(O)ccc(O)c2C(=O)c2c(NCCNCCO)ccc(NCCNCCO)c21
T/C (dose: 1.0 mg/kg/injection, schedule: Q01DX005 (ip), vehicle: saline with Tween-80, evaluated on day 30): 109 and 112 % of control [9 of 10 alive] | T/C (dose: 1.0 mg/kg/injection, schedule: Q01DX005 (ip), vehicle: saline with Tween-80, evaluated on day 60): 101 % of control | survivor count (dose: 1.0 mg/kg/injection, schedule: Q01DX005 (ip), vehicle: saline with Tween-80): 6 of 10 | T/C (dose: 2.0 mg/kg/injection, schedule: Q01DX005 (ip), vehicle: saline with Tween-80, evaluated on day 30): 109 and 118 % of control [8 of 10 alive] | T/C (dose: 2.0 mg/kg/injection, schedule: Q01DX005 (ip), vehicle: saline with Tween-80, evaluated on day 60): 104 % of control [9 of 10 alive] | survivor count (dose: 2.0 mg/kg/injection, schedule: Q01DX005 (ip), vehicle: saline with Tween-80): 7 of 10 | T/C (dose: 4.0 mg/kg/injection, schedule: Q01DX005 (ip), vehicle: saline with Tween-80, evaluated on day 30): 92 [7 of 10 alive] and 108 % of control [9 of 10 alive] | T/C (dose: 4.0 mg/kg/injection, schedule: Q01DX005 (ip), vehicle: saline with Tween-80, evaluated on day 60): 89 % of control [9 of 10 alive] | survivor count (dose: 4.0 mg/kg/injection, schedule: Q01DX005 (ip), vehicle: saline with Tween-80): 8 of 10 | survivor count [1]: 10 of 10 | survivor count [2]: 10 of 10 | survivor count (dose: 16.0 mg/kg/injection, schedule: Q01DX009 (ip), vehicle: saline): 10 of 10 | survivor count (dose: 32.0 mg/kg/injection, schedule: Q01DX009 (ip), vehicle: saline): 0 of 10 | survivor count (dose: 64.0 mg/kg/injection, schedule: Q01DX009 (ip), vehicle: saline): 2 of 10

O=CC(NC(=O)N(CCF)N=O)C(O)C(O)C(O)CO (stereo unspecified)
T/C [3]: 126 % of control [7 of 10 alive on day 6] | survivor count (dose: 135.0 mg/kg/injection, schedule: Q01DX001 (ip), vehicle: Klucel (hydroxypropylcellulose) (HPC)): 6 of 10 on day 6

O=NN(CCF)C(=O)NC1C(O)CCCC1O (stereo unspecified)
T/C (dose: 26.7 mg/kg/injection, schedule: Q01DX001 (ip), vehicle: Klucel (hydroxypropylcellulose) (HPC)): 137 % of control | T/C (dose: 36.0 mg/kg/injection, schedule: Q01DX001 (ip), vehicle: saline): 143 % of control [8 of 10 alive on day 6] | survivor count [3]: 3 of 10 on day 6 | survivor count (dose: 100.0 mg/kg/injection, schedule: Q01DX001 (ip), vehicle: saline): 4 of 10 on day 6

O=NN(CCF)C(=O)NC1CCCCC1
T/C (dose: 20.4 mg/kg/injection, schedule: Q01DX001 (ip), vehicle: other): 127 % of control | T/C (dose: 25.9 mg/kg/injection, schedule: Q01DX001 (ip), vehicle: other): 129 % of control [9 of 10 alive] | survivor count (dose: 36.0 mg/kg/injection, schedule: Q01DX001 (ip), vehicle: Klucel (hydroxypropylcellulose) (HPC)): 6 of 10 on day 6 | T/C (dose: 40.7 mg/kg/injection, schedule: Q01DX001 (ip), vehicle: other): 128 % of control | survivor count (dose: 72.0 mg/kg/injection, schedule: Q01DX001 (ip), vehicle: other): 6 of 10 | T/C (dose: 81.4 mg/kg/injection, schedule: Q01DX001 (ip), vehicle: other): 128 % of control [9 of 10 alive] | survivor count (dose: 100.0 mg/kg/injection, schedule: Q01DX001 (ip), vehicle: Klucel (hydroxypropylcellulose) (HPC)): 2 of 10 on day 6 | survivor count (dose: 120.0 mg/kg/injection, schedule: Q01DX001 (ip), vehicle: other): 0 of 10 | survivor count (dose: 200.0 mg/kg/injection, schedule: Q01DX001 (ip), vehicle: other): 0 of 10

COc1cccc2c1C(=O)c1c(O)c3c(c(O)c1C2=O)C[C@@](O)(C(C)=O)C[C@@H]3OC1CC(N)C(O)C(C)O1 (stereo partly specified)
survivor count (dose: 2.0 mg/kg/injection, schedule: Q01DX009 (ip), vehicle: saline): 10 of 10 | survivor count (dose: 2.0 mg/kg/injection, schedule: Q03HX008 (ip), vehicle: saline): 9 of 10 | survivor count [1]: 10 of 10 | survivor count (dose: 4.0 mg/kg/injection, schedule: Q01DX009 (ip), vehicle: water): 10 of 10

CCN(CC)CCCC(C)Nc1c2ccc(Cl)cc2nc2ccc(OC)cc12 (stereo unspecified)
survivor count (dose: 8.0 mg/kg/injection, schedule: Q01DX009 (ip), vehicle: saline with Tween-80): 4 of 10 | survivor count (dose: 16.0 mg/kg/injection, schedule: Q01DX009 (ip), vehicle: saline with Tween-80): 8 of 10 | survivor count (dose: 32.0 mg/kg/injection, schedule: Q01DX009 (ip), vehicle: saline with Tween-80): 8 of 10 | survivor count (dose: 64.0 mg/kg/injection, schedule: Q01DX009 (ip), vehicle: saline with Tween-80): 4 of 10 | survivor count (dose: 128.0 mg/kg/injection, schedule: Q01DX009 (ip), vehicle: saline with Tween-80): 6 of 10 and 8 of 10 | survivor count (dose: 256.0 mg/kg/injection, schedule: Q01DX009 (ip), vehicle: saline with Tween-80): 0 of 10

S=P(N1CC1)(N1CC1)N1CC1
T/C (dose: 2.0 mg/kg/injection, schedule: Q01DX009 (ip), vehicle: saline, evaluated on day 30): 125 % of control | T/C (dose: 2.0 mg/kg/injection, schedule: Q01DX009 (ip), vehicle: saline, evaluated on day 60): 127 % of control | T/C [1]: 133 % of control | T/C [2]: 125 % of control | survivor count [2]: 6 of 10

Nc1ncnc2c1ncn2C1OC(COP(=O)(O)O)C(O)C1O (stereo unspecified)
T/C (dose: 100.0 mg/kg/injection, schedule: Q01DX009 (ip), vehicle: saline, evaluated on day 30): 94 and 111 % of control [9 of 10 alive] | T/C (dose: 100.0 mg/kg/injection, schedule: Q01DX009 (ip), vehicle: saline, evaluated on day 60): 95 and 100 % of control | T/C (dose: 200.0 mg/kg/injection, schedule: Q01DX009 (ip), vehicle: saline, evaluated on day 30): 100 and 103 % of control | T/C (dose: 200.0 mg/kg/injection, schedule: Q01DX009 (ip), vehicle: saline, evaluated on day 60): 100 and 100 % of control [8 of 10 alive] | T/C (dose: 400.0 mg/kg/injection, schedule: Q01DX009 (ip), vehicle: saline, evaluated on day 30): 105 and 106 % of control | T/C (dose: 400.0 mg/kg/injection, schedule: Q01DX009 (ip), vehicle: saline, evaluated on day 60): 94 % of control (2×) | T/C (dose: 800.0 mg/kg/injection, schedule: Q01DX009 (ip), vehicle: saline, evaluated on day 30): 99 and 110 % of control | T/C (dose: 800.0 mg/kg/injection, schedule: Q01DX009 (ip), vehicle: saline, evaluated on day 60): 97 and 100 % of control
